Measured values published in US20250115828A1, “INACTIVATING AGENT FOR ENVELOPED VIRUSES” (priority 2022, published 2025).
Some of these results come from one statement about several compounds together.

Test: Krafft point measurement with rhodamine 6G
Type: physicochemical
Settings: 0.2 mass % in ion exchange water
Protocol: A krafft point of component (a) or (a′) was measured by the method below.
A solution obtained by diluting component (a) or (a′) with ion exchange water to attain a total amount of 5 mL and a concentration of 0.2 mass % was prepared and placed in a glass test tube, and the fluorescent dye rhodamine 6G (FUJIFILM Wako Pure Chemical Corporation) was then added to attain a final concentration of 0.02 mM. After the test tube was placed in an ice bath to condition a temperature at 5° C., the temperature was raised at a temperature rise rate of 0.5° C./min, and a temperature at which the solution emitted fluorescence was taken as the krafft point. Component (a) or (a′) which had emitted fluorescence at 5° C. was considered to have a krafft point of less than 5° C.

Compound: CCCCCCCC/C=C\CCCCCCCC(=O)[O-].[K+] [(a′-5), potassium oleate]
- krafft point: less than 5 °C
